Experimental data: PubChem BioAssay AID1508597 (Cure First, 2020)
Screen: 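Genes whose silencing sensitises or protects ovarian cancer cells against rucaparib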 (primary screen). Cells: human ovarian carcinoma lines grown from tumours: OCI-P5x (papillary serous) and OCI-C5x (clear cell). Reagents: siRNA pool against human genes, 1.25 pmol siRNA per well. Timing: 72 h or 96 h, depending on the cell culture. Conditions: rucaparib 20 µM (about IC30) or vehicle, present until read-out. Measured: 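ATP luminescence measured at 72 or 96 h according to the culture, then normalised and expressed as percent viability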. Reading the numbers: viability, normalised: higher = more viable cells remaining. Call rule: 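a well counts as a hit if its normalised viability is under 80 percent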. Meaning of the calls: active = viability under 80%; inactive = viability 80% or more.
The deposit covers about 2,100 reagents; shown is a random part of them. 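Calls flag viability under 80% in either arm, not effects specific to rucaparib; the reference for percent is not stated.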 A reagent listed more than once was tested more than once; the source does not tell the runs apart. Not given: the 100% reference.

With FGFR1 (fibroblast growth factor receptor 1), rucaparib or vehicle Rucaparib, cell line OCI-C5x (clear cell), technical replicate 1 the deposit lists viability, normalised (%) = 52.9; active.
For FGFR1 (fibroblast growth factor receptor 1), rucaparib or vehicle Rucaparib, cell line OCI-C5x (clear cell), technical replicate 2 the deposit lists viability, normalised (%) = 82.4; inactive.
With FGFR1 (fibroblast growth factor receptor 1), rucaparib or vehicle Rucaparib, cell line OCI-C5x (clear cell), technical replicate 3 the deposit lists viability, normalised (%) = 63.3; active.
For FGFR1 (fibroblast growth factor receptor 1), rucaparib or vehicle Rucaparib, cell line OCI-P5x (serous), technical replicate 1, the entry reads viability, normalised (%) = 133; inactive.
FGFR1 (fibroblast growth factor receptor 1), rucaparib or vehicle Rucaparib, cell line OCI-P5x (serous), technical replicate 2 showed viability, normalised (%) = 130; inactive.
With FGFR1 (fibroblast growth factor receptor 1), rucaparib or vehicle Rucaparib, cell line OCI-P5x (serous), technical replicate 3, the values are viability, normalised (%) = 107; inactive.
FGFR1 (fibroblast growth factor receptor 1), rucaparib or vehicle Vehicle, cell line OCI-C5x (clear cell), technical replicate 1 gave viability, normalised (%) = 76.5; active.
With FGFR1 (fibroblast growth factor receptor 1), rucaparib or vehicle Vehicle, cell line OCI-C5x (clear cell), technical replicate 2, the values are viability, normalised (%) = 71.1; active.
FGFR1 (fibroblast growth factor receptor 1), rucaparib or vehicle Vehicle, cell line OCI-C5x (clear cell), technical replicate 3 scored viability, normalised (%) = 72; active.
For FGFR1 (fibroblast growth factor receptor 1), rucaparib or vehicle Vehicle, cell line OCI-P5x (serous), technical replicate 1, the values are viability, normalised (%) = 103; inactive.
With FGFR1 (fibroblast growth factor receptor 1), rucaparib or vehicle Vehicle, cell line OCI-P5x (serous), technical replicate 2, the values are viability, normalised (%) = 89.2; inactive.
For FGFR1 (fibroblast growth factor receptor 1), rucaparib or vehicle Vehicle, cell line OCI-P5x (serous), technical replicate 3 the deposit lists viability, normalised (%) = 98.5; inactive.
With RBBP8 (RB binding protein 8, endonuclease), rucaparib or vehicle Rucaparib, cell line OCI-C5x (clear cell), technical replicate 1, the values are viability, normalised (%) = 54.9; active.
RBBP8 (RB binding protein 8, endonuclease), rucaparib or vehicle Rucaparib, cell line OCI-C5x (clear cell), technical replicate 1 gave viability, normalised (%) = 37.7; active.
With RBBP8 (RB binding protein 8, endonuclease), rucaparib or vehicle Rucaparib, cell line OCI-C5x (clear cell), technical replicate 2 the deposit lists viability, normalised (%) = 50.7; active.
With RBBP8 (RB binding protein 8, endonuclease), rucaparib or vehicle Rucaparib, cell line OCI-C5x (clear cell), technical replicate 2 the deposit lists viability, normalised (%) = 35.9; active.
For RBBP8 (RB binding protein 8, endonuclease), rucaparib or vehicle Rucaparib, cell line OCI-C5x (clear cell), technical replicate 3 the deposit lists viability, normalised (%) = 36.7; active.
RBBP8 (RB binding protein 8, endonuclease), rucaparib or vehicle Rucaparib, cell line OCI-C5x (clear cell), technical replicate 3 showed viability, normalised (%) = 50.2; active.
With RBBP8 (RB binding protein 8, endonuclease), rucaparib or vehicle Rucaparib, cell line OCI-P5x (serous), technical replicate 1, the values are viability, normalised (%) = 41.3; active.
RBBP8 (RB binding protein 8, endonuclease), rucaparib or vehicle Rucaparib, cell line OCI-P5x (serous), technical replicate 1 scored viability, normalised (%) = 62.9; active.
For RBBP8 (RB binding protein 8, endonuclease), rucaparib or vehicle Rucaparib, cell line OCI-P5x (serous), technical replicate 2, the values are viability, normalised (%) = 47.5; active.
RBBP8 (RB binding protein 8, endonuclease), rucaparib or vehicle Rucaparib, cell line OCI-P5x (serous), technical replicate 2 showed viability, normalised (%) = 51; active.
RBBP8 (RB binding protein 8, endonuclease), rucaparib or vehicle Rucaparib, cell line OCI-P5x (serous), technical replicate 3 scored viability, normalised (%) = 48.4; active.
RBBP8 (RB binding protein 8, endonuclease), rucaparib or vehicle Rucaparib, cell line OCI-P5x (serous), technical replicate 3 showed viability, normalised (%) = 44.2; active.
For RBBP8 (RB binding protein 8, endonuclease), rucaparib or vehicle Vehicle, cell line OCI-C5x (clear cell), technical replicate 1 the deposit lists viability, normalised (%) = 56.9; active.
For RBBP8 (RB binding protein 8, endonuclease), rucaparib or vehicle Vehicle, cell line OCI-C5x (clear cell), technical replicate 1, the entry reads viability, normalised (%) = 64.1; active.
For RBBP8 (RB binding protein 8, endonuclease), rucaparib or vehicle Vehicle, cell line OCI-C5x (clear cell), technical replicate 2 the deposit lists viability, normalised (%) = 47; active.
RBBP8 (RB binding protein 8, endonuclease), rucaparib or vehicle Vehicle, cell line OCI-C5x (clear cell), technical replicate 2 showed viability, normalised (%) = 42.4; active.
RBBP8 (RB binding protein 8, endonuclease), rucaparib or vehicle Vehicle, cell line OCI-C5x (clear cell), technical replicate 3 showed viability, normalised (%) = 45; active.
RBBP8 (RB binding protein 8, endonuclease), rucaparib or vehicle Vehicle, cell line OCI-C5x (clear cell), technical replicate 3 scored viability, normalised (%) = 62.1; active.
With RBBP8 (RB binding protein 8, endonuclease), rucaparib or vehicle Vehicle, cell line OCI-P5x (serous), technical replicate 1, the entry reads viability, normalised (%) = 62.3; active.
RBBP8 (RB binding protein 8, endonuclease), rucaparib or vehicle Vehicle, cell line OCI-P5x (serous), technical replicate 1 scored viability, normalised (%) = 65.4; active.
RBBP8 (RB binding protein 8, endonuclease), rucaparib or vehicle Vehicle, cell line OCI-P5x (serous), technical replicate 2 showed viability, normalised (%) = 63.7; active.
RBBP8 (RB binding protein 8, endonuclease), rucaparib or vehicle Vehicle, cell line OCI-P5x (serous), technical replicate 2 scored viability, normalised (%) = 72.4; active.
RBBP8 (RB binding protein 8, endonuclease), rucaparib or vehicle Vehicle, cell line OCI-P5x (serous), technical replicate 3 showed viability, normalised (%) = 99.7; inactive.
For RBBP8 (RB binding protein 8, endonuclease), rucaparib or vehicle Vehicle, cell line OCI-P5x (serous), technical replicate 3, the values are viability, normalised (%) = 56.2; active.
With UTP3 (UTP3 small subunit processome component), rucaparib or vehicle Rucaparib, cell line OCI-C5x (clear cell), technical replicate 1 the deposit lists viability, normalised (%) = 54.8; active.
UTP3 (UTP3 small subunit processome component), rucaparib or vehicle Rucaparib, cell line OCI-C5x (clear cell), technical replicate 2 scored viability, normalised (%) = 49.2; active.
For UTP3 (UTP3 small subunit processome component), rucaparib or vehicle Rucaparib, cell line OCI-C5x (clear cell), technical replicate 3, the values are viability, normalised (%) = 56; active.
UTP3 (UTP3 small subunit processome component), rucaparib or vehicle Rucaparib, cell line OCI-P5x (serous), technical replicate 1 scored viability, normalised (%) = 100; inactive.
UTP3 (UTP3 small subunit processome component), rucaparib or vehicle Rucaparib, cell line OCI-P5x (serous), technical replicate 2 showed viability, normalised (%) = 81.4; inactive.
UTP3 (UTP3 small subunit processome component), rucaparib or vehicle Rucaparib, cell line OCI-P5x (serous), technical replicate 3 scored viability, normalised (%) = 86.5; inactive.
UTP3 (UTP3 small subunit processome component), rucaparib or vehicle Vehicle, cell line OCI-C5x (clear cell), technical replicate 1 gave viability, normalised (%) = 43.5; active.
With UTP3 (UTP3 small subunit processome component), rucaparib or vehicle Vehicle, cell line OCI-C5x (clear cell), technical replicate 2 the deposit lists viability, normalised (%) = 37.8; active.
For UTP3 (UTP3 small subunit processome component), rucaparib or vehicle Vehicle, cell line OCI-C5x (clear cell), technical replicate 3, the entry reads viability, normalised (%) = 52.8; active.
With UTP3 (UTP3 small subunit processome component), rucaparib or vehicle Vehicle, cell line OCI-P5x (serous), technical replicate 1 the deposit lists viability, normalised (%) = 79; active.
With UTP3 (UTP3 small subunit processome component), rucaparib or vehicle Vehicle, cell line OCI-P5x (serous), technical replicate 2 the deposit lists viability, normalised (%) = 63.2; active.
UTP3 (UTP3 small subunit processome component), rucaparib or vehicle Vehicle, cell line OCI-P5x (serous), technical replicate 3 gave viability, normalised (%) = 83.5; inactive.
